Reference: patent US20110178027A1
These are yes or no findings as the source states them, for the method shown. Some results given as binding are weak or reduced against the parent protein; the word gives no strength.

Sequences of proteins named here, by UniProt entry; tags and fusion partners are left off. Residues count along the entry.
UniProt P09958, residues 108-715: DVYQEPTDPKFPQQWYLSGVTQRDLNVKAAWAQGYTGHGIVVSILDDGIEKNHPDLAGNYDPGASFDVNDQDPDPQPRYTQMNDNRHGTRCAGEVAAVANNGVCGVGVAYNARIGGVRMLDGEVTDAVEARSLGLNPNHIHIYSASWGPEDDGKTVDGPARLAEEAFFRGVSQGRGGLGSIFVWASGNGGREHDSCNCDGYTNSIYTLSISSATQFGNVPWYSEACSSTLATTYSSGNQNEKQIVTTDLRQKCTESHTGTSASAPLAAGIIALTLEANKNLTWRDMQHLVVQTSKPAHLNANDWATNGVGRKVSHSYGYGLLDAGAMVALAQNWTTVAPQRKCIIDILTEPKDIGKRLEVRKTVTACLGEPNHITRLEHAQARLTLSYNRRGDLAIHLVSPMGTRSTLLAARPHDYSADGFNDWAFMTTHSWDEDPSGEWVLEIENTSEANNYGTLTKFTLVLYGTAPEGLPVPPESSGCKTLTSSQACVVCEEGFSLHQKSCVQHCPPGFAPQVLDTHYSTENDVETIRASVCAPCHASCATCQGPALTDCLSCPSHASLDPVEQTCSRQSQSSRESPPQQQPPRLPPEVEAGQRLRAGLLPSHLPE

T1: PACE4 (UniProt P29122)
T1 sequence (looked up): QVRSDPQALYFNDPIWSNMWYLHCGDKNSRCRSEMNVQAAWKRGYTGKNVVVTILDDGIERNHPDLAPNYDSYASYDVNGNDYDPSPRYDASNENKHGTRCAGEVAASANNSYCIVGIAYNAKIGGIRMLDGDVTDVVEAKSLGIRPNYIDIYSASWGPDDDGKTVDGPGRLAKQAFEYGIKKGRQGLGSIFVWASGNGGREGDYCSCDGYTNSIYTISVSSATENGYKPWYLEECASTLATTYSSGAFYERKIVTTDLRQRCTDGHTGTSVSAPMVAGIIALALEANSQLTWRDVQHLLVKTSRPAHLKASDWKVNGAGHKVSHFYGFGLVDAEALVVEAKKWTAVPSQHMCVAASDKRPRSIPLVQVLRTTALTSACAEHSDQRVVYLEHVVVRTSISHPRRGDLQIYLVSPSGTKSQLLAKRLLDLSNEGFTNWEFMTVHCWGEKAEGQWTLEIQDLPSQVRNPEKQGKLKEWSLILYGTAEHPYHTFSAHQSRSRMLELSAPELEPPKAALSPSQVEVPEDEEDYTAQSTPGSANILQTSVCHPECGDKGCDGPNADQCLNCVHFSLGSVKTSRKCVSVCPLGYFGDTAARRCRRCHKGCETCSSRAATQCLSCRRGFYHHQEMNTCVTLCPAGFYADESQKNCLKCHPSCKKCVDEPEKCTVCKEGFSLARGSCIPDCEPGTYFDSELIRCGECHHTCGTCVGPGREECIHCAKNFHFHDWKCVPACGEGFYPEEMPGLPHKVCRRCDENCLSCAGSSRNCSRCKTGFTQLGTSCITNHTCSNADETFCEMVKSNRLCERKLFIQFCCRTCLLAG

T2: PC1/3 (UniProt P29120)
T2 sequence (looked up): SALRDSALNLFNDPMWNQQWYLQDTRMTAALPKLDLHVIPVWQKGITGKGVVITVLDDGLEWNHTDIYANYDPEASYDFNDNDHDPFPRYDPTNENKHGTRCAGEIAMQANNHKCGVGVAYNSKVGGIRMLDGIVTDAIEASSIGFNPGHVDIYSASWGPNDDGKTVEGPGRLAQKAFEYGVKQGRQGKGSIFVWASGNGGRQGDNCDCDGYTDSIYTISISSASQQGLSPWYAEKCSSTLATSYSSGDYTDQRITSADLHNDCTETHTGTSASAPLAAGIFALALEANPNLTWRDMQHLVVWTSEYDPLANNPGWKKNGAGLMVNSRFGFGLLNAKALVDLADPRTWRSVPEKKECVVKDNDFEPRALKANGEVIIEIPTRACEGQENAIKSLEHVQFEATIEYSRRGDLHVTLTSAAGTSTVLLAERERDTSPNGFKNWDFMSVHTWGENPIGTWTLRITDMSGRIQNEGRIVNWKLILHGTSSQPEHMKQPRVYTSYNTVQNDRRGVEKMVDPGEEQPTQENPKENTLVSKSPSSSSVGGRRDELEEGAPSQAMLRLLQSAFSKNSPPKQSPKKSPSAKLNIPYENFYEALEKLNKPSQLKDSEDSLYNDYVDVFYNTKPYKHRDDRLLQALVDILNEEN

T3: PC2 (UniProt P16519)
T3 sequence (looked up): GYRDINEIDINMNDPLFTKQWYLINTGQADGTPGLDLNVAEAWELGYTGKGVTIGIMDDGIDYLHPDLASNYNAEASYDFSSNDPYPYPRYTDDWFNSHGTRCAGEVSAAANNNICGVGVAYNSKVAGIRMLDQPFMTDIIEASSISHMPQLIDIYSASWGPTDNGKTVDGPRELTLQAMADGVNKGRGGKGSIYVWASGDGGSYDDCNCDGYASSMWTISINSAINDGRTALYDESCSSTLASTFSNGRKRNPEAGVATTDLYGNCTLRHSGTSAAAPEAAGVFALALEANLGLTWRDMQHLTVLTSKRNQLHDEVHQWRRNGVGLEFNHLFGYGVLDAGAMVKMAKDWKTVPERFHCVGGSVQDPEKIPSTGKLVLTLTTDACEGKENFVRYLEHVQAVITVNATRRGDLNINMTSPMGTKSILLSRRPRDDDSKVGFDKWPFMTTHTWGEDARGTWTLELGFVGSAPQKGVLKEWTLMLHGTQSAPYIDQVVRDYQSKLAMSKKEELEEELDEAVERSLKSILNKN

T4: PC5/6 (UniProt Q92824)
T4 sequence (looked up): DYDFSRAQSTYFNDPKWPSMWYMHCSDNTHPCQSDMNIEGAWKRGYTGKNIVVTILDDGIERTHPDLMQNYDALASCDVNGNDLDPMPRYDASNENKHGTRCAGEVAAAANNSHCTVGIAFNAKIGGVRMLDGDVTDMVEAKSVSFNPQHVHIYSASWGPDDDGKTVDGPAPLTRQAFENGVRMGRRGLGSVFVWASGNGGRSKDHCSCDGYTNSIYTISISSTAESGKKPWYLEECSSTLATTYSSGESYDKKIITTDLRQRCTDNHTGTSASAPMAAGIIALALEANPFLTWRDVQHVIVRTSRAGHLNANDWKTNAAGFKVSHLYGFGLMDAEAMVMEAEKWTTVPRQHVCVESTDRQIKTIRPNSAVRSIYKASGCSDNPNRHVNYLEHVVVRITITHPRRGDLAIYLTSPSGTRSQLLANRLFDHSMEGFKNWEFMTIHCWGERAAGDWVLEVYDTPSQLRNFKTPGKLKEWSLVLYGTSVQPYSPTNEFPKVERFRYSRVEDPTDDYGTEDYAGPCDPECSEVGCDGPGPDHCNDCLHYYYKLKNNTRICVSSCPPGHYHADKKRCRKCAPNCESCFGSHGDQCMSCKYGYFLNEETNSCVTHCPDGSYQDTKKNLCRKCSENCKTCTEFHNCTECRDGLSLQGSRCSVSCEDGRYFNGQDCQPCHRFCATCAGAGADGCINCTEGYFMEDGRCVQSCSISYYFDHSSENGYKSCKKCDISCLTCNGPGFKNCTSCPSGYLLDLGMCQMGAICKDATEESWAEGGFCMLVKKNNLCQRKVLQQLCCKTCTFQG

T5: PC7 (UniProt Q16549)
T5 sequence (looked up): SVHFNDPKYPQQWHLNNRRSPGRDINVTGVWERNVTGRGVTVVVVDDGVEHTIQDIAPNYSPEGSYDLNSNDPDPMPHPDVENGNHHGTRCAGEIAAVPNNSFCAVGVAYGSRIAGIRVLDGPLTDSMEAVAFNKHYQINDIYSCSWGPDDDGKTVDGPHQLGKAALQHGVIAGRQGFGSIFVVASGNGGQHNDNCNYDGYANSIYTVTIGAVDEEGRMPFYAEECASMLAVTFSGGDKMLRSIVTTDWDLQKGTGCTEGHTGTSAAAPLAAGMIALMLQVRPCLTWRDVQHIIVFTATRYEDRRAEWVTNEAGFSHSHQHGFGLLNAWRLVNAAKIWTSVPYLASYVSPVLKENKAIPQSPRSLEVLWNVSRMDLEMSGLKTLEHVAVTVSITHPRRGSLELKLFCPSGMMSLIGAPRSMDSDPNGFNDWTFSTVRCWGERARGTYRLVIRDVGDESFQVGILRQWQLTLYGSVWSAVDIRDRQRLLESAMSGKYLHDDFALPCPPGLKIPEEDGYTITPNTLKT


Key:
Assay in all cases: enzyme inhibition assay, fluorogenic substrate PyrRTKR-MCA
[1] = biological target: T1, PACE4
[2] = biological target: T2, PC1/3
[3] = biological target: T3, PC2
[4] = biological target: T4, PC5/6
[5] = biological target: T5, PC7
[6] = biological target: furin (UniProt P09958)

binding [1]	binding [2]	binding [3]	binding [4]	binding [5]	binding [6]	Binder
binds	binds	binds	binds	binds	binds	LLLLRVKR (C-terminal amide) [LLLLRVKR-NH2]
binds	binds	binds	binds	binds	binds	LLLLLLRVKR (C-terminal amide) […-NH2]
